# Laboratory results published in the supplement of paper PMC3334620.
# In all, about 33,000 sequences were measured (“E-score (-0.5 to 0.5)”: median about -0.0014, highest 2% from about 0.25 on). The list shows a part of the results.
# Target: T1, Cad1 (UniProt P24813)
# T1 sequence: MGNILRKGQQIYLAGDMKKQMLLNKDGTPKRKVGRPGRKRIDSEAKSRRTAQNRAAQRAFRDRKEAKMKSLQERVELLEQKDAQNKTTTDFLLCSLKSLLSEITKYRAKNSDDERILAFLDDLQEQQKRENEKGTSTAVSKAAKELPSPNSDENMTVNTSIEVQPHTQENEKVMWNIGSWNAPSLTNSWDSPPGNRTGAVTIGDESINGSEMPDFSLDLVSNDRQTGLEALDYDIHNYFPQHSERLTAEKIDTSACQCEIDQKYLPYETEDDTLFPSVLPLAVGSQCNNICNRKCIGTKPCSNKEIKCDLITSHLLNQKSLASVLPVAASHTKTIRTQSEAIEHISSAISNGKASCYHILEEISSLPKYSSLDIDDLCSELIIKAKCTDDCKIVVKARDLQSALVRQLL
# Assay: PBM E-score (8-mer binding enrichment) (E-score (-0.5 to 0.5)); higher = stronger / more preferred TF binding
# Conditions: protein concentration: 100 nM; construct: GST-full length
# Procedure, shortened: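 Universal all-10-mer Agilent arrays, fresh or stripped once, were converted to double-stranded form by primer extension. GST-tagged yeast transcription factors from PURExpress in vitro transcription/translation, full-length or DNA-binding domain only, were applied at about 100-200 nM and detected with fluorescent anti-GST. After masliner normalisation, the Universal PBM Analysis Suite scored each ungapped eight-base word together with its reverse complement by E-score.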
row,Sequence,PBM E-score
1,AGCCGTTG,0.101
2,ACTGAAGA,0.00909
3,ACAGAATA,0.167
4,GAATACAC,-0.034
5,GCTGTTCA,0.094
6,AGGTTACA,-0.0399
7,GCAAGTGA,0.116
8,TAGGACAA,0.0366
9,GCCACCTA,-0.167
10,AATCCAAA,0.188
11,CCCGTGGC,-0.2
12,AATTCACG,-0.0495
13,GTGCAGCA,-0.141
14,CATGGGCA,-0.0527
15,GTACCCCA,-0.0917
16,CTACGTCC,-0.163
17,ACAGGGCT,-0.168
18,GGGCTTAC,0.0166
19,AAGGTGTG,0.0581
20,CCCCTCAA,-0.269
21,ACGTAGCC,-0.235
22,ATTTAAGA,0.0745

row,Sequence,PBM E-score
1,ACATTACC,0.0384
2,ATTAGCCA,0.0977
3,ACCTCGAA,-0.0571
4,ACAGGAAA,0.155
5,ACATGATA,0.203
6,CCGGGGAC,-0.235
7,GTCTATCA,0.074
8,CATCCCTA,0.0256
9,CCTACTGC,-0.208
10,GTCTACAC,0.0321
11,ACCGGAAG,0.192
12,AGAGCTAT,-0.254
13,AATATCCG,0.265
14,GTCAGTAA,0.166
15,AACTAACA,0.0943
16,CGAGCGAC,0.0243
17,AAGCATCT,-0.00694
18,AGTAACCA,-0.0106
19,AACCACTC,-0.00576
20,ACAATTGT,0.133
21,ACCTATGA,-0.202
22,CCCTATCA,-0.129

row,Sequence,PBM E-score
1,AACTTTTC,0.0431
2,AACTGGGC,-0.128
3,AGGGCCGG,-0.261
4,AAGTAGGG,-0.025
5,CAACCTAC,-0.00641
6,AACATCCC,-0.0301
7,GGGACGCA,-0.149
8,AATTGACC,0.135
9,CGCACTAG,-0.0891
10,CTATCCCC,-0.263
11,CAGTATTA,0.15
12,ACGAGAAT,0.167
13,AAACTGCA,-0.0777
14,CGCTCTAG,-0.307
15,CAGGACGA,-0.0504
16,AGGTTCCC,-0.216
17,AAGTCGGT,-0.0478
18,GCGCTAAA,0.0685
19,GTTCGTTA,0.176
20,CGATTTAG,0.17
21,GGCACTAC,-0.18
22,GAGTCGCC,-0.308

# For convenience, part of the list above:
row,Sequence,PBM E-score
22,CCCTATCA,-0.129
1,AACTTTTC,0.0431
2,AACTGGGC,-0.128
3,AGGGCCGG,-0.261

# Continuation:

row,Sequence,PBM E-score
1,ACTATTCC,0.196
2,ATGTGCGG,-0.00079
3,GGTACTGA,-0.173
4,CGGTTGAG,0.0874
5,GGCGTTGA,-0.0438
6,CAACACAG,0.165
7,GTTACTGA,0.086
8,GGCCGAGA,-0.0552
9,TGCTGGAA,0.104
10,ACCTTGCC,-0.149
11,ACGCCAAC,-0.081
12,AGAACACG,0.0405
13,AACGCGTA,0.00524
14,CGCGTTTC,-0.129
15,AGCGGTGC,-0.105
16,GATATTAC,0.293
17,AGGTGTAG,-0.128
18,CATGCAGA,0.115
19,AATCGTAT,0.17
20,AGCGGCAC,-0.0682
